# These are yes or no findings as the source states them, for the method shown. A result given as binding can be weak or reduced; the word gives no strength.
# Biological target: T1, Mouse cytokeratin 10 (residues 1–570) (mouse) (UniProt P02535)
# T1 sequence: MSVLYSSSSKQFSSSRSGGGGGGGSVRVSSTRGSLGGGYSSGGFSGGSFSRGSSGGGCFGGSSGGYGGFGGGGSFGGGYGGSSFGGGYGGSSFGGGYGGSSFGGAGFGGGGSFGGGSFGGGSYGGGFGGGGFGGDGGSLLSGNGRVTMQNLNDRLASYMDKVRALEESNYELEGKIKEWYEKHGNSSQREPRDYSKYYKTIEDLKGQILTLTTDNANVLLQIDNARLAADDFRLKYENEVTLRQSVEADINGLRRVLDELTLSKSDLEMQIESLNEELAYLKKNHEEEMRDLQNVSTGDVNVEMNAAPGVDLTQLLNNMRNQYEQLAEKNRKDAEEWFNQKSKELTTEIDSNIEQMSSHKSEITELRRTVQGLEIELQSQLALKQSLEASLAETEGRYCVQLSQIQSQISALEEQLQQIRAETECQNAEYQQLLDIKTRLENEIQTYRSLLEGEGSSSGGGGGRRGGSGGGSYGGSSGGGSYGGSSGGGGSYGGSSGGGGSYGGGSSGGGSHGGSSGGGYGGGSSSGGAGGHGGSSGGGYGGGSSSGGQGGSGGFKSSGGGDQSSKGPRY
# Test: ELISA; human Fbg, Fn, α-elastin or K10 coated in bicarbonate buffer overnight; increasing concentrations of SpsD167–519, F288A or latch mutant; detected with anti-SpsD37–519 IgG; both purified
substance,measurement,value
SpsD_(167–519) F288A (domain or fragment),binding,binds

# Source: publication PMC3689669
